Literature values as cited in patent publication US20090252814A1, “USE OF XENON FOR ORGAN PROTECTION” (priority 2005, published 2009).
At least one structure is not confirmed: it was looked up by name or label, or the drawing left a doubt.

Settings: cited from earlier work

SMILES: [Xe] [xenon]
- blood/gas partition coefficient: about 0.14
- oil/gas partition coefficient: 1.9
